Here are results for 60 compounds from PubChem BioAssay AID445 (National Center for Advancing Translational Sciences (NCATS), 2006).

This is one part of the list. Further columns of the screen follow, without active or inactive calls. Most of these compounds were active or inconclusive in the main read-out, so they are no random draw. The note in brackets gives the kind of curve behind each potency; many fits are weak.

The assay in a line: IkB Signaling. Particulars: ABC-DLBCL IkBa-CBG/CBR dual luciferase ratio (green luciferase fused to IkBa over red control in OCI-Ly3 lymphoma cells), 4 h; measured here: control luc red channel unless noted. The method in brief:
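In this assay, an IκBα–CBG68 fusion accumulates when IKK-driven degradation is blocked; native CBR normalizes for cell number. OCI-Ly3 cells were treated 4 h with compound and doxycycline, then green and red light read after Chroma-Glo addition.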
As usually defined, the AC50 is the midpoint of the concentration-response curve, whichever way the signal moves. Consider `Cc1ccc(-c2nc(NC(=O)CSc3nnc4scc(-c5ccccc5)n34)ns2)cc1`, for which the half-maximal activity concentration (AC50) was 15.8 µM [falling, partial curve].
The result for `COc1ccc(S(=O)(=O)c2nnn(-c3cccc(Cl)c3)c2N)cc1` reads 15.8 µM [falling, partial curve]; that for `CCOC(=O)c1cc(-c2ccc(OC)c(S(=O)(=O)N3CCN(c4ccccc4)CC3)c2)on1`, 15.8 µM [falling, partial curve]; that for `O=C(Nc1nc2ccccc2[nH]1)c1ccc(F)cc1`, 1.58 µM [falling, full curve].
Consider `CC(NC(=O)c1cc2ccccc2o1)c1cccs1` (stereo not given), for which the AC50 is 15.8 µM [falling, partial curve].
Then `CCc1ccc(C(=O)COC(=O)C(NC(=O)C2CCC(C)CC2)C(C)C)cc1` (stereo not given), with 7.94 µM [falling, full curve]; and `CCCc1ccc(OCC(=O)Nc2sc3c(c2C(=O)OCC)CCC(C(C)(C)C)C3)cc1` (stereo not given), with 1 µM [rising, full curve, poor fit].
Then `O=C(CSc1nc2scc(-c3ccco3)c2c(=O)n1-c1ccccc1)NCC1CCCO1` (stereo not given), with 3.98 µM [rising, partial curve] [measured here: IkB-luc green channel].
The result for `Cc1ccc(C(=O)CSc2nnc(CNc3ccc(C)cc3C)n2Cc2ccco2)cc1` reads 15.8 µM [falling, partial curve]; that for `CCn1c2c(c(=O)n3ncc(C(=O)N4CCN(c5ccc(Cl)cc5)CC4)c13)CN(Cc1ccc(OC)cc1)CC2`, 12.6 µM [falling, partial curve].
On to `COc1ccc(-c2nc3scc(CCNS(=O)(=O)c4ccc(F)cc4C)n3n2)cc1`, for which the AC50 is 3.16 µM [rising, single point].
The result for `CCOC(=O)c1[nH]c(C)c(CCC(=O)NCc2ccc(CC)cc2)c1C` reads 31.6 µM [falling, single point].
Turning to `COc1ccc(Nc2cc(C(=O)NCCCN3CCN(c4ccccc4F)CC3)c3ccccc3n2)c(OC)c1`, the AC50 was 12.6 µM [falling, partial curve].
For `Cc1ccc(-c2ccc(=O)n(CCC(=O)NCCc3ccccc3)n2)cc1`, the concentration at half-maximal activity (AC50) was 3.16 µM [rising, single point].
Then `O=C1CSC2(C(=O)N(Cc3cccc(F)c3)c3ccccc32)N1c1cccc(C(F)(F)F)c1` (stereo not given), with 31.6 µM [falling, partial curve]; and `CCOC(=O)Cc1csc(NC(=O)CCc2ccc(S(=O)(=O)N3CCOCC3)cc2)n1`, with 31.6 µM [falling, single point].
The result for `COc1ccc(NC(=O)c2ccc3nc(C(C)C)oc3c2)cc1OC` reads 6.31 µM [falling, partial curve, poor fit]; that for `Cc1ccc(Cn2c(CO)cnc2SCC(=O)Nc2ccc(C)c(Cl)c2)cc1`, 20 µM [falling, single point].
As for `COc1ccc(CNC(=O)CCc2c(C)c3cc4c(C)coc4c(C)c3oc2=O)cc1OC`, the AC50 is 0.2 µM [rising, full curve, poor fit].
Then `Cc1ccc(S(=O)(=O)CC(=O)N2CCN(c3nc4c(F)cccc4s3)CC2)cc1`, with 6.31 µM [rising, single point]; and `CN1C(=O)c2ccccc2Sc2ccc(NC(=O)c3ccc(C(F)(F)F)cc3)cc21`, with 20 µM [falling, partial curve].
For `N#Cc1ccccc1NS(=O)(=O)c1ccc(N2CCCCS2(=O)=O)cc1`, the AC50 was 0.251 µM [falling, full curve, poor fit].
The result for `CCCc1nn2c(=O)cc(COC(=O)c3ccc(NC(=O)COc4ccccc4)cc3)nc2s1` reads 10 µM [falling, partial curve, poor fit]; that for `CCN(CC)C(=O)c1sc2c(c1C)c(=O)n(CCc1ccccc1)c(=O)n2Cc1cc(C)ccc1C`, 12.6 µM [falling, partial curve, poor fit]; that for `COc1cccc(N2CCN(C(=O)c3cc4c(s3)-c3ccccc3OC4)CC2)c1`, 0.2 µM [falling, full curve, poor fit].
Then `O=C(CCSc1ccc(F)cc1)Nc1ccc(-n2cnnn2)cc1`, with 25.1 µM [falling, partial curve, poor fit].
Then `O=C(NCCc1ccc(Cl)cc1)c1ccc(CS(=O)(=O)c2ccc(Cl)cc2)o1`, with 15.8 µM [falling, partial curve]; and `CC(C)(C)c1ccc(Cn2nnc3c(=O)[nH]c(C4CCN(C(=O)Cc5cccs5)CC4)nc32)cc1`, with 39.8 µM [falling, single point]; and `Cc1ccc2cc(CN(Cc3ccccc3)Cc3nnnn3C3CCCC3)c(=O)[nH]c2c1`, with 3.16 µM [falling, partial curve].
Take `COc1ccc(NC(=O)Cn2cc(S(=O)(=O)c3ccccc3)c(=O)c3cc4c(cc32)OCO4)cc1`: the AC50 is 39.8 µM [falling, single point].
As to `CCCC(=O)OCc1cnc(C)c2oc(=O)c(C(=O)Nc3cccc(C(F)(F)F)c3)cc12`, the half-maximal activity concentration (AC50) is 25.1 µM [falling, partial curve].
The result for `COc1ccc(N(Cc2cccs2)C(=O)c2ccc(OC)c(Cl)c2)cc1` reads 5.01 µM [falling, partial curve]; that for `Cc1cccc(N2CCN(C(=O)C3CCN(S(=O)(=O)c4c(C)noc4C)CC3)CC2C)c1` (stereo not given), 39.8 µM [falling, partial curve]; that for `CCCS(=O)(=O)c1c(S(=O)(=O)CCC)c2cc(C(C)(C)C)ccn2c1C(=O)c1ccccc1`, 20 µM [falling, single point].
Then `CC(=O)Nc1ccc(NC(=O)c2ccccc2F)cc1`, with 12.6 µM [falling, partial curve]; and `Cc1ccccc1C(=O)Nc1ccc2nc(N3CCCCC3)cc(C)c2c1`, with 1.26 µM [rising, partial curve]; and `COC(=O)c1ccc(NC(=O)CC2C(=O)N(c3ccccc3)C(=O)N2Cc2ccc(F)cc2)cc1` (stereo not given), with 25.1 µM [falling, single point].
Regarding `CC(C)c1noc(-c2ccccc2OCC(=O)Nc2cccc([N+](=O)[O-])c2)n1`, the half-maximal activity concentration (AC50) is 12.6 µM [falling, partial curve].
The result for `CC(C)Sc1ncc(Cl)c(C(=O)Nc2ccc(S(=O)(=O)N3CCCCC3)cc2)n1` reads 39.8 µM [falling, single point].
Then `COc1cc(C2CC(=O)Oc3c2c(=O)[nH]c2ccccc32)cc(OC)c1OC` (stereo not given), with 25.1 µM [falling, partial curve, poor fit]; and `Cc1ccc(-c2cc3nc(-c4ccccc4)cc(C(F)(F)F)n3n2)cc1`, with 20 µM [falling, partial curve].
The result for `Cc1ccc(NC(=O)C2CCN(S(=O)(=O)c3cccc4nonc34)CC2)cc1C` reads 1 µM [falling, full curve, poor fit].
For `CCNc1ncc2nc(-c3cn(C)c4ccccc34)c(=O)n(-c3ccccc3)c2n1`, the AC50 is 0.794 µM [falling, partial curve].
Then `Cc1c(NC(=O)c2ccc3c(c2)OCO3)cccc1-c1nc2ncccc2o1`, with 7.94 µM [falling, partial curve].
The result for `O=C(Oc1ccccc1F)c1nc(SCc2ccc(F)cc2)ncc1Cl` reads 7.94 µM [falling, partial curve, poor fit].
Then `Cc1ccc(CN(C(=O)COc2cc(C)c(Cl)c(C)c2)c2ccccn2)o1`, with 25.1 µM [falling, single point]; and `CC(=O)N1CCc2cc(Br)cc(S(=O)(=O)CCC(=O)N3CCN(c4ccccc4Cl)CC3)c21`, with 25.1 µM [falling, single point].
As to `COc1ccc(-c2nc3scc(CCNS(=O)(=O)c4ccc5c(c4)OCCO5)n3n2)cc1`, the AC50 is 7.94 µM [falling, partial curve].
The result for `COc1ccc(C(=O)OCCNC(=O)c2c(Cl)nc3ccccn23)cc1` reads 31.6 µM [falling, single point]; that for `Cc1cccc(C)c1NC(=O)CS(=O)(=O)c1nc(-c2ccc(Cl)cc2)cn1-c1ccccc1`, 6.31 µM [falling, partial curve].
Then `CC(=O)N1CCc2cc(S(=O)(=O)NC(CC(C)C)C(=O)Nc3cc(C)cc(C)c3)ccc21` (stereo not given), with 12.6 µM [falling, single point].
The result for `Cc1cccn2c(=O)c3cc(C#N)c(=O)n(-c4nnc(SCc5ccc(Cl)cc5)s4)c3nc12` reads 2.51 µM [falling, full curve, poor fit]; that for `Cc1ccc(C)c(Cn2c(=O)c3c(nc4n3CCN4c3ccccc3)n(C)c2=O)c1`, 15.8 µM [falling, partial curve]; that for `CC(=O)N1CCc2c(sc3c2c(=O)n(CCc2ccccc2)c(=O)n3Cc2ccccc2C)C1`, 39.8 µM [falling, single point].
As to `COc1ccc(NC(=O)CSc2nc(-c3cccc(C)c3)[nH]c2-c2ccccc2)cc1OC`, the AC50 is 10 µM [falling, partial curve].
As for `COc1ccc(N2C(=O)CSC23C(=O)N(CC(=O)NCCc2ccccc2)c2ccccc23)cc1` (stereo not given), the half-maximal activity concentration (AC50) is 39.8 µM [falling, single point].
The result for `O=C(CSc1nc(=O)[nH]c2c1CCCC2)NCc1ccccc1` reads 5.01 µM [rising, partial curve].
The result for `COc1cc(N=c2ssnc2Cl)cc(OC)c1OC` reads 31.6 µM [falling, partial curve]; that for `Cc1ccc(S(=O)(=O)c2c(O)cc(C)c(NS(=O)(=O)c3ccc(Cl)cc3)c2C)cc1`, 12.6 µM [falling, partial curve]; that for `Cc1cc(C)c2sc(N3CCN(C(=O)c4ccc(N(C)C)cc4)CC3)nc2c1`, 15.8 µM [falling, partial curve].
